The supplement of paper PMC12823440, “Inhibitors supercharge kinase turnover through native proteolytic circuits” (Nature, 2025)
Structures can show the parent of a compound that is named as a salt. The list shows a part of the results. The calls rarely recur for the same compound in another form.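 Kinases, fused to nanoluciferase, were expressed in K562 cells; luminescence was measured every 4 h from 2 to 18 h as percent of control (DMSO = 100%, positive control = 0%). A time point is decreased if signal falls significantly (2 sigma). Hits were called by the authors by a rule that is not shown; the count of time points alone does not decide it.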

Protein sequences, listed by entry. Tags and fused reporters are not part of them.
UniProt P07333, whole entry: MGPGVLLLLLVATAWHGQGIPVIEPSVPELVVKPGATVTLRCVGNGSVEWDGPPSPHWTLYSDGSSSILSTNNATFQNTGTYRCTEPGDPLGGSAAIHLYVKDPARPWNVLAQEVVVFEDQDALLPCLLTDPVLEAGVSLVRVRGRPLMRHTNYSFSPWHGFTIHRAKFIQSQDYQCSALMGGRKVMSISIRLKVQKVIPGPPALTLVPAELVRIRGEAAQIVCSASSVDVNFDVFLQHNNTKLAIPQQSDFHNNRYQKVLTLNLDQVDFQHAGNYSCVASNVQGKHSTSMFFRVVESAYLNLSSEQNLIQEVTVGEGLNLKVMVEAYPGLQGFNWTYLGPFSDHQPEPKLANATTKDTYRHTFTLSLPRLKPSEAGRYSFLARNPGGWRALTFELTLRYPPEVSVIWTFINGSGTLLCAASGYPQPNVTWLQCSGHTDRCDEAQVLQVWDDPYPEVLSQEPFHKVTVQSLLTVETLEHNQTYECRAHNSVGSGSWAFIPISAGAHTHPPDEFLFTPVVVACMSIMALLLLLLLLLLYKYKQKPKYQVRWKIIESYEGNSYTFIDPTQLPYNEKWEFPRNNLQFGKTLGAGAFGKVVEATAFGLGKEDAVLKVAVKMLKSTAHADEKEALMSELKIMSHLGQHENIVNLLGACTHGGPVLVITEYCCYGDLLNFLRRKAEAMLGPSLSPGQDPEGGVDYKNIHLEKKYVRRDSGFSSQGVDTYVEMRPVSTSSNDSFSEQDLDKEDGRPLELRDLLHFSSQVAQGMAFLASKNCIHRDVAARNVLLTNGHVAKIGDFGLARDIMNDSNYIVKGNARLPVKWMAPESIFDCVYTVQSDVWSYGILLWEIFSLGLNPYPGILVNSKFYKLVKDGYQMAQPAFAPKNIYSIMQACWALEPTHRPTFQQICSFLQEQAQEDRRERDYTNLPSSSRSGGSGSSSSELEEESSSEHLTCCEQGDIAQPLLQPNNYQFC

These compounds were tested against CSF1R (UniProt P07333) (assay: number of time points (of 5) at which kinase-Nluc abundance scored as decreased, DMSO-normalised (count); higher = more persistent destabilization). Settings: K562; 2-18 h.

Q: With `Cn1c(N2CCO[C@@H](c3ccc(F)cc3)C2)nc(-c2ccncn2)cc1=O` (10 µM) as the compound, how does the “number of time points” value read?
A: 2

Q: How did the “number of time points” value turn out when `C[C@@H](NC(=O)c1ncnc(N)c1Cl)c1ncc(C(=O)Nc2cc(C(F)(F)F)c(Cl)cn2)s1` (2.5 µM) was run?
A: 3

Q: `CO/N=C1/C(c2c(O)[nH]c3cc(Cl)c(Cl)cc23)=Nc2ccccc21` (10 µM) was tested. Which “number of time points” value did it give?
A: 0

Q: With `Cc1n[nH]c2ncc(C(=O)N3CCC[C@H]3c3ccc(Cl)cc3)cc12` (10 µM) as the compound, how does the “number of time points” value read?
A: 0

Q: With `Cc1ccc(Nc2cc(N[C@@H]3CCCC[C@@H]3N)nnc2C(N)=O)nc1C` (2 µM) as the compound, how does the “number of time points” value read?
A: 0

Q: `NC(=O)c1cnc(N[C@@H]2CCCC[C@@H]2N)nc1Nc1cccc(-n2nccn2)c1` (2.5 µM) was tested. Which “number of time points” value did it give?
A: 0

Q: For `CCc1c(C(=O)NNC(=O)[C@H](O)c2cc(F)cc(F)c2)ccc(O)c1C` (10 µM), which “number of time points” value is on record?
A: 0

Q: With `CC/C(=C(\c1ccccc1)c1ccc(OCCNC)cc1)c1ccccc1` [N-Desmethyltamoxifen (hydrochloride)] (2.5 µM) as the compound, how does the “number of time points” value read?
A: 0

Q: How did the “number of time points” value turn out when `CCCCNc1ncc(C(=O)NCc2ccc(-n3ccnc3)cc2)c(NC2CCC(O)CC2)n1` (stereo not drawn) (10 µM) was run?
A: 1

Q: How did the “number of time points” value turn out when `Oc1ccc(-c2cnc3ccc(NCc4ccco4)nn23)cc1` [IRAK inhibitor 2] (2.5 µM) was run?
A: 0

Q: How did the “number of time points” value turn out when `CS(=O)(=O)c1ccc([C@@H](CC2CCCC2)C(=O)Nc2nccs2)cc1` (10 µM) was run?
A: 0

Q: How did the “number of time points” value turn out when `CC(=O)O/N=C1/C(c2c(O)[nH]c3cc(Br)ccc23)=Nc2ccccc21` [BIO-acetoxime] (10 µM) was run?
A: 0

Q: With `COc1cc2nc(-c3cc(F)ccc3O)nc(N[C@@H]3CNC[C@H]3C(C)(C)O)c2cc1OC` (2.5 µM) as the compound, how does the “number of time points” value read?
A: 0
